In PubChem BioAssay AID493014 (National Center for Advancing Translational Sciences (NCATS), 2011):
Some of the results follow. The main result of the screen is listed elsewhere. These columns were measured beside it and carry no call. The list favours compounds with an active or inconclusive main result. Words in brackets tell the shape of the fitted curve; partial curves, single points and poor fits give uncertain potencies.

Experiment: qHTS Assay to Find Inhibitors of Chronic Active B-Cell Receptor Signaling
Conditions: ABC-DLBCL IkBa-CBG/CBR reporter, luminescence ratio (green luciferase fused to IkBa over red control in TMD8 lymphoma cells), 4 h
Summary of the method: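 TMD8 human ABC-DLBCL cells with doxycycline-inducible IκBα–green luciferase fusion and unfused red luciferase, in 0.5% FBS medium; compounds up to 46 uM, 4 h at 37C. Green/red luminescence ratio, filter-overlap corrected, fitted to concentration-response curves.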

[1] = measured here: CBR red luminescence, cell number
[2] = measured here: IkBa-CBG green luminescence

Row | Compound | AC50 [1] | AC50 [2]
1 | Cc1ccc(NC2=CC(=O)CC(c3ccc(Cl)cc3)C2)cc1 (configuration not stated) | 32.6 µM [rising, partial curve, poor fit] | –
2 | Cc1ccc(/C=N/n2c(C3CCCCC3)n[nH]c2=S)cc1 | 35.5 µM [rising, single point] | –
3 | COc1ccc(NC(=O)CN(c2ccccc2OC)S(=O)(=O)c2cccs2)cc1Cl | 3.26 µM [falling, partial curve, poor fit] | –
4 | CCOc1c(Cl)cc(C(=O)Nc2ccccc2C(=O)O)cc1Cl | 2.51 µM [falling, full curve, poor fit] | –
5 | Cc1ccc2cc3c(NC(=O)CC(C)C)nn(C)c3nc2c1 | 0.794 µM [falling, full curve] | –
6 | CC(C)(C)C(=O)N1CCN(c2nc3ccc(Br)cc3s2)CC1 | 25.1 µM [rising, partial curve, poor fit] | –
7 | O=C(Nc1sc(-c2ccccc2)cc1C(=O)O)c1ccccc1 | 6.31 µM [falling, partial curve, poor fit] | –
8 | Clc1ccc(N/N=C/c2ccncc2)cc1Cl | 2.06 µM [rising, full curve] | –
9 | CC(=O)Nc1ccc(C(=O)OCc2ccc(Cl)c(Cl)c2)cc1 | 23.1 µM [rising, single point] | –
10 | COc1cc(CNCCSc2nnnn2C)cc(Br)c1OCc1ccccc1 | 17.8 µM [falling, single point] | –
11 | Cc1cc2c(cc1S(=O)(=O)N1CCN(c3ccc(Cl)cc3)CC1)OCCN2C | 11.2 µM [rising, partial curve, poor fit] | –
12 | COc1ccccc1NC(=O)Nc1nn(C)c2cccc(OC)c12 | 11.2 µM [falling, partial curve, poor fit] | –
13 | COc1ccc2nc(SCC(=O)Nc3c(C)cc(C)cc3C)[nH]c2c1 | 11.2 µM [falling, partial curve, poor fit] | –
14 | CCOc1cc(/C=C2\SC(=N)N(c3nccs3)C2=O)ccc1OCCN1CCOCC1 | 29.1 µM [rising, single point] | –
15 | CCCCn1c(NCc2ccccc2O)nc2ccccc21 | 20.6 µM [falling, single point] | –
16 | CNC(=O)/C(C#N)=C/c1ccc(-c2ccc(OC)cc2[N+](=O)[O-])o1 | 6.51 µM [falling, single point] | –
17 | O=C(Nc1cc(C(F)(F)F)ccc1Cl)c1cccnc1 | 20 µM [rising, partial curve, poor fit] | –
18 | COC(=O)Cc1c(C)nc2nc(-c3ccco3)[nH]n2c1=O | 23.1 µM [falling, partial curve, poor fit] | –
19 | O=C(CSc1nnc2c3ccccc3c3ccccc3c2n1)Nc1ccccc1F | 1.41 µM [falling, full curve] | –
20 | CC(=O)C1=C(C)NC(SCC(=O)c2cc(Cl)ccc2Cl)=C(C#N)C1c1ccco1 (configuration not stated) | 25.1 µM [falling, single point] | –
21 | CC(=O)c1ccc(NC(=S)Nc2ccc(Br)c(Cl)c2)cc1 | 17.8 µM [rising, partial curve, poor fit] | –
22 | CNC(=O)c1nnsc1S(=O)c1ccc(Cl)cc1 (configuration not stated) | 2 µM [falling, full curve] | 4.47 µM [rising, full curve]

Row | Compound | AC50 [1] | AC50 [2]
23 | C=CCN1C(=O)N(c2ccc(Cl)cc2)C(=O)C1CC(=O)Nc1ccc(F)cc1 (configuration not stated) | 35.5 µM [falling, single point] | –
24 | CCN1CCN(c2ncnc3c2cnn3-c2ccccc2)CC1 | 7.31 µM [rising, single point] | –
25 | Cc1cccc(OCC(=O)N(Cc2ccc(C)o2)C2CCS(=O)(=O)C2)c1 (configuration not stated) | 4.47 µM [falling, partial curve] | –
26 | Cc1ccc(/C=N/NC(=O)c2ccc3c(c2)OCCO3)s1 | 3.98 µM [falling, partial curve] | –
27 | CCOc1ccccc1OCC(=O)N/N=C(\C)Cc1ccc(OC)cc1 | 29.1 µM [rising, single point] | 10.3 µM [falling, partial curve]
28 | O=C(O)CCC(=O)Nc1sc2c(c1C(=O)Nc1cccc3ccccc13)CCCCC2 | 29.1 µM [falling, single point] | –
29 | Cc1c(NC(=S)SCc2ccccc2)c(=O)n(-c2ccccc2)n1C | 11.2 µM [falling, single point] | –
30 | CC(=O)C(Sc1nnnn1-c1ccc(O)cc1)c1ccccc1 (configuration not stated) | 12.6 µM [rising, partial curve, poor fit] | –
31 | Cc1c(C(c2ccc(N(C)C)cc2)c2c(C)n(C)n(-c3ccccc3)c2=O)c(=O)n(-c2ccccc2)n1C | 11.2 µM [rising, single point] | –
32 | CC(CN1CCOCC1)OC(=O)C1COc2ccccc2O1 (configuration not stated) | 2.51 µM [rising, partial curve] | –
33 | O=C(Nc1nnc(SCc2ccccc2F)s1)c1ccco1 | 3.26 µM [rising, partial curve, poor fit] | –
34 | Cc1[nH]n(-c2ccc([N+](=O)[O-])cc2)c(=O)c1C=NCCN1CCN(C(=O)c2cccc(F)c2)CC1 | 14.6 µM [falling, partial curve] | –
35 | CN1CCC(=NNC(=O)C(=O)Nc2cccc(Br)c2)CC1 | 10 µM [falling, partial curve, poor fit] | –
36 | CCOc1cc(C(=O)Nc2cc(=O)n(C)c(=O)n2C)cc(OCC)c1OCC | 0.184 µM [falling, full curve, poor fit] | –
37 | COc1cccc(C(=O)NC2(C(F)(F)F)N=C3SCCN3C2=O)c1 (configuration not stated) | 2.06 µM [falling, partial curve, poor fit] | –
38 | CCOC(=O)C1(Cc2ccc(OC)cc2)CCN(C(=O)C2CC(=O)N(C3CC3)C2)CC1 (configuration not stated) | 35.5 µM [rising, single point] | –
39 | COc1cc2ccccc2cc1C(=O)OCc1nc2ccsc2c(=O)[nH]1 | 0.517 µM [rising, full curve] | –
40 | COc1ccc(S(=O)(=O)N(CCc2ccccc2)CC(=O)O)cc1C | 6.51 µM [falling, single point] | –
41 | C[C@@]12C(=O)N(c3cccc(F)c3)C(=O)N1[C@H](c1ccc(Cl)cc1)[C@@H]1C(=O)N(C3CCCCC3)C(=O)[C@@H]12 | 10.3 µM [falling, partial curve, poor fit] | –
42 | Cc1ccc(-c2n[nH]c(=S)n2/N=C/C=C/c2ccccc2[N+](=O)[O-])cc1 | 11.6 µM [rising, partial curve] | –
43 | O=C1CN(C(=O)Cn2ncc(Cl)c(Cl)c2=O)c2ccccc2N1 | 10 µM [falling, partial curve, poor fit] | –
44 | COc1ccc(S(=O)(=O)c2ccccc2)cc1NS(=O)(=O)c1cccc(C(=O)O)c1 | 3.26 µM [falling, single point] | –

Row | Compound | AC50 [1] | AC50 [2]
45 | O=C(NC(=S)Nc1cccc2[nH]ncc12)c1ccccc1 | 11.2 µM [falling, single point] | –
46 | COc1cccc(C2=NN(C(=O)c3ccco3)C(c3ccco3)C2)c1 (configuration not stated) | 20 µM [falling, partial curve, poor fit] | –
47 | COC(=O)c1ccc(-c2nc3ccccc3o2)cc1 | 0.631 µM [rising, full curve, poor fit] | –
48 | COc1ccc(C(=O)NNC(=S)Nc2ccccc2)cc1 | 6.31 µM [falling, partial curve] | –
49 | Nc1nnc(-c2cn(-c3ccccc3)nc2-c2ccccc2)o1 | 1.84 µM [rising, full curve, poor fit] | –
50 | CC(=O)c1cnc(Nc2ccc(C)cc2)s1 | 12.6 µM [rising, partial curve] | –
51 | Clc1ccc(CSc2nc3ccncc3[nH]2)cc1 | 14.6 µM [falling, single point] | –
52 | COc1ccc(C(=O)COC(=O)c2cccc(-n3cnnn3)c2)c(OC)c1 | 0.366 µM [falling, full curve] | –
53 | Brc1cccc(-c2cnc3n2CCCCC3)c1 | 29.1 µM [falling, single point] | –
54 | COc1ccc(CCNC(=O)c2nnc(Cc3ccc(Cl)cc3)o2)cc1OC | 29.1 µM [falling, single point] | –
55 | CCOC(=O)CC(=O)Nc1nnc(CC(C)C)s1 | 29.1 µM [rising, single point] | –
56 | COc1ccc(NC(=O)c2sc3nc(C)cc(C)c3c2N)cc1 | 3.55 µM [falling, full curve, poor fit] | –
57 | Cc1ccc2c(c1)N=C(c1ccc(Cl)cc1)CO2 | 0.731 µM [rising, full curve, poor fit] | –
58 | Cc1onc(-c2ccccc2)c1C(=O)N/N=C/C(Br)=C/c1ccccc1 | 20.6 µM [falling, single point] | –
59 | COc1ccc(C)cc1NC(=O)C1CC(=O)OC12CCCCC2 (configuration not stated) | 29.1 µM [rising, single point] | –
60 | CCn1c(SCC(=O)Nc2ccc3c(c2)OCO3)nc2c1c(=O)n(C)c(=O)n2C | 29.1 µM [falling, single point] | –
61 | Cc1ccc(C(NC(=O)N2CCN(C)CC2)C(Cl)Cl)cc1F (configuration not stated) | 3.16 µM [falling, full curve] | –
62 | O=S(=O)(c1cccc(C(F)(F)F)c1)n1c(/C=C/c2ccccc2)nc2ccccc21 | 35.5 µM [falling, single point] | –
63 | O=[N+]([O-])c1ccc2c(c1)CNc1ccccc1O2 | 2.82 µM [rising, partial curve] | –
64 | CN(C)S(=O)(=O)Oc1cccc(C(=O)Nc2ccc([N+](=O)[O-])cc2)c1 | 0.0891 µM [rising, full curve, poor fit] | –
65 | O=C(CSc1nnc(CNC(=O)c2cccs2)o1)c1ccc(Cl)cc1 | 11.6 µM [rising, partial curve, poor fit] | –

Structures above containing a cyano group (2):
Row | Compound | AC50 [1] | AC50 [2]
16 | CNC(=O)/C(C#N)=C/c1ccc(-c2ccc(OC)cc2[N+](=O)[O-])o1 | 6.51 µM [falling, single point] | –
20 | CC(=O)C1=C(C)NC(SCC(=O)c2cc(Cl)ccc2Cl)=C(C#N)C1c1ccco1 (configuration not stated) | 25.1 µM [falling, single point] | –
